Like-named read-outs stand apart in the source and are kept apart here. No constants are given. Whether binding was seen depends on the method and setting. Binding seen in cells or lysates may run through a third protein. For part of these data: Binding can be weak; no strength is given. For part of these data: Sequences can lack the tags named with a protein. Blank lines part the entries; values can stand above or below the molecule they belong to.
Experiments:
[1] = molecular target: T1, Myc-tagged EBF1 (early B cell factor-1) (UniProt Q07802); assay: co-IP; 293T cells co-transfected with FLAG-tagged WT, EED or AAA MEF2C and Myc-tagged EBF1; Myc-IP (EBF1 as bait) blotted with FLAG antibody (S1C Fig)
T1 sequence: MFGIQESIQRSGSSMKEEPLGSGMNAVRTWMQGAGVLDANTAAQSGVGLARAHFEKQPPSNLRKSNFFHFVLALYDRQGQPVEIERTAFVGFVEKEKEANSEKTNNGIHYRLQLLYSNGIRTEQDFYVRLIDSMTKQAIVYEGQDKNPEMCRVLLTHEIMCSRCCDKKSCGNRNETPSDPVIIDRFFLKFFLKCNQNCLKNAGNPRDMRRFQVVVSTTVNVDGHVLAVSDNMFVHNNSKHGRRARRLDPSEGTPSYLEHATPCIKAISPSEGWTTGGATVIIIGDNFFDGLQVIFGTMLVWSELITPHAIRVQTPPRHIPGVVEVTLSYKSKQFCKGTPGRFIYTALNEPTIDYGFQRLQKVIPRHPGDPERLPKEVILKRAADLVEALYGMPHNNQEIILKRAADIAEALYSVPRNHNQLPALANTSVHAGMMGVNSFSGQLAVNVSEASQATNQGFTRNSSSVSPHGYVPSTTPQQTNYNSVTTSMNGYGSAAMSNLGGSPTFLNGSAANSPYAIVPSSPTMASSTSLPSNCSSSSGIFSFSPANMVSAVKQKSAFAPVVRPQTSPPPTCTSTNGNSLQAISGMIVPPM

Chains of the proteins cited; added tags and fusions are not shown. Lines headed by an entry give the natural chain unless they say otherwise; changes in a name come on top.
UniProt Q8CFN5: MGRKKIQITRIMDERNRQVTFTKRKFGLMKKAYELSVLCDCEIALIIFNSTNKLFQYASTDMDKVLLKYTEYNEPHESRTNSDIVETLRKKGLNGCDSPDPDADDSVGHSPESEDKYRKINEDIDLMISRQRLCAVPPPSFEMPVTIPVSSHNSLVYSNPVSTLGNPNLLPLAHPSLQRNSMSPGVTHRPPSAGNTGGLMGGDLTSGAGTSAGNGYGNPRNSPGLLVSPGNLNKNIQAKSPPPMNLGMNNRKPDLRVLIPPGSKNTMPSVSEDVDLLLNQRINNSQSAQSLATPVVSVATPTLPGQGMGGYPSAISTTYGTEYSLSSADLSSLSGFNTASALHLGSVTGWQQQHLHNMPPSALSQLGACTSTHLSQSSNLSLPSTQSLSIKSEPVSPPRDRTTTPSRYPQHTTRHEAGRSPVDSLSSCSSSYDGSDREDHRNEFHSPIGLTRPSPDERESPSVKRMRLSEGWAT
UniProt Q02650: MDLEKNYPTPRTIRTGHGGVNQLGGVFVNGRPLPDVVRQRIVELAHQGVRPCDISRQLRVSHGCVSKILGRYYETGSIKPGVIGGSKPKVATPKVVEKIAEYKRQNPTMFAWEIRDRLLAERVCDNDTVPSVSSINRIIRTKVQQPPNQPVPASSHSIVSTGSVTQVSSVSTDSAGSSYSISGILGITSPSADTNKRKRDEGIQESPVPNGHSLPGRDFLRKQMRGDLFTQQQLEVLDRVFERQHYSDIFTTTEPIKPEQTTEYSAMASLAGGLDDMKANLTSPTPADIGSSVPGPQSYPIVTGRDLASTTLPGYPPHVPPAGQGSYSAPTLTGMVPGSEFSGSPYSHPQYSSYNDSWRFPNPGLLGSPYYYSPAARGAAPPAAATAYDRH

[2] = molecular target: FLAG-tagged phosphomimetic MEF2C (EED-MEF2C) (UniProt Q8CFN5); assay: co-IP; 293T cells co-transfected; lysis in 50mM HEPES, 140mM NaCl, 1mM EDTA, 0.5% Triton-X, 0.5% sodium deoxycholate; overnight IP with anti-FLAG M2 (MEF2C as bait); washed with high-salt lysis buffer (500mM NaCl); blotted with anti-Myc or anti-V5; for WT MEF2C and EBF1 also with benzonase treatment, which did not prevent co-IP
[3] = molecular target: FLAG-tagged phosphorylation-deficient MEF2C (AAA MEF2C) (UniProt Q8CFN5); assay: as above
[4] = molecular target: FLAG-tagged phosphomimetic MEF2C (EED-MEF2C) (UniProt Q8CFN5); assay: as above; remark: listed apart in the source
[5] = molecular target: FLAG-tagged phosphorylation-deficient MEF2C (AAA MEF2C) (UniProt Q8CFN5); assay: as above; remark: listed apart in the source

Molecule: FLAG-tagged phosphorylation-deficient MEF2C (AAA MEF2C) (from UniProt Q8CFN5-5)
binding [1]: binds

Molecule: Myc-tagged E12 (E2A isoform) (from UniProt E9PWE2 1-653)
binding [2]: no binding
binding [3]: no binding

Molecule: Myc-tagged PAX5 (from UniProt Q02650 1-391)
binding [2]: no binding

B2: Myc-tagged EBF1 (early B cell factor-1) (protein, UniProt Q07802 1-591)
chain: T1 sequence
binding [4]: binds
binding [5]: binds

The remaining lines, values ahead:

binding [1]: binds
Molecule: FLAG-tagged phosphomimetic MEF2C (EED-MEF2C) (from UniProt Q8CFN5-5)

binding [4]: no binding
binding [5]: no binding
B1: Myc-tagged E47 (E2A isoform) (protein, UniProt E9PVV2 1-649)
chain: MMNQSQRMAPVGSDKELSDLLDFSMMFPLPVANGKSRPASLGGTQFAGSGLEDRPSSGSWGSSDQNSSSFDPSRTYSEGAHFSDSHSSLPPSTFLGAGLGGKGSERNAYATFGRDTSVGTLSQAGFLPGELSLSSPGPLSPSGIKSSSQYYPSFPSNPRRRAADGGLADTQPKKVRKVPPGLPSSVYPPSSGDSYSRDAAAYPSAKTPSSAYPSPFYVADGSLHPSAELWSTPSQVGFGPMLGDGSSPLPLAPGSSSVGSGTFGGLQQQDRMGYQLHGSEVNGSLPAVSSFSAAPGTYSGTSGHTPPVSGAAAESLLGTRGTTASSSGDALGKALASIYSPDHSSNNFSPSPSTPVGSPQGLPGTSQWPRAGAPSALSPNYDAGLHGLSKMEDRLDEAIHVLRSHAVGTASDLHGLLPGHGALTTSFTGPMSLGGRHAGLVGGSHPEEGLTSGASLLHNHASLPSQPSSLPDLSQRPPDSYSGLGRAGTTAGASEIKREEKEDEEIASVADAEEDKKDLKVPRTRTSSTDEVLSLEEKDLRDRERRMANNARERVRVRDINEAFRELGRMCQLHLKSDKAQTKLLILQQAVQVILGLEQQVRERNLNPKAACLKRREEEKVSGVVGDPQLALSAAHPGLGEAHNPAGHL

— PMC4762780
